Assay results from paper PMC7098486.
Results are given in words; binding and its absence hold for the method and conditions named. Binding seen in cells or lysates may run through a third protein. Some binding calls cover weakened binding; strength is not graded here.

Protein sequences, listed by entry. Tags and fused reporters are not part of them.
UniProt Q15388: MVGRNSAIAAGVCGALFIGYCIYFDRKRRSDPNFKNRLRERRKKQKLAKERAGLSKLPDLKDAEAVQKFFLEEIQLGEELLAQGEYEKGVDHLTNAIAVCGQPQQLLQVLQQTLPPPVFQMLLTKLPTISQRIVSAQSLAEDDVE
UniProt Q70CQ3: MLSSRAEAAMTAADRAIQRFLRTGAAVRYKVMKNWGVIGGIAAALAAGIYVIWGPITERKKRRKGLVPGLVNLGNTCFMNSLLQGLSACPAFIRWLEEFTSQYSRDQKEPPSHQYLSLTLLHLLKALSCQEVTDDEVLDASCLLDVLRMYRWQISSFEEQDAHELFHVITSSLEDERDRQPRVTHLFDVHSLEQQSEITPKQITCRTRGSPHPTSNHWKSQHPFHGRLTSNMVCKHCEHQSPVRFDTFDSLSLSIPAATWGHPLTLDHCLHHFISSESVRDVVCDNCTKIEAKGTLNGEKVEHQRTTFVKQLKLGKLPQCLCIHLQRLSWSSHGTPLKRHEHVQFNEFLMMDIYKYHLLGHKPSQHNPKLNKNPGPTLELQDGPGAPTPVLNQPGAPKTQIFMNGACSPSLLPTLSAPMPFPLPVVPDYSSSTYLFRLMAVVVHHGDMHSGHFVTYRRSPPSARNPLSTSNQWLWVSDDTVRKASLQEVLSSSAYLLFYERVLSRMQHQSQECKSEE

Biological target: TOMM20 (human (endogenous in iNeurons from H9 ES cells)) (UniProt Q15388)
Test: co-IP; crude mitochondria of USP30+/+ or USP30-/- iNeurons solubilised with 1% digitonin; anti-TOMM20, anti-USP30 or control IgG cross-linked to Protein A resin; 50 ug mitoprep, 4 h at 4 C in 1xMSH buffer with 0.1% digitonin; washes with 0.1% digitonin and 200 mM NaCl; SDS-PAGE and immunoblotting

- binding: binds
Substance: USP30 (from UniProt Q70CQ3 1-517) (enzyme)
